For data set [1], the system named is YTHDF1 (Active Motif #31608). As to the kind of experiment: EMSA. Conditions: YTHDF1 0.64 uM, RNA 250 nM, positive control; m6A at positions 3, 9, 15, 22, 29.
Another data set addresses GFP-FUS (UniProt P35637). The data set is described as follows: confocal nanoscanning. Conditions: cell lysate; protein in a lysate after overexpression.

Chains of the proteins cited; added tags and fusions are not shown. Lines headed by an entry give the natural chain unless they say otherwise; changes in a name come on top.
UniProt P35637: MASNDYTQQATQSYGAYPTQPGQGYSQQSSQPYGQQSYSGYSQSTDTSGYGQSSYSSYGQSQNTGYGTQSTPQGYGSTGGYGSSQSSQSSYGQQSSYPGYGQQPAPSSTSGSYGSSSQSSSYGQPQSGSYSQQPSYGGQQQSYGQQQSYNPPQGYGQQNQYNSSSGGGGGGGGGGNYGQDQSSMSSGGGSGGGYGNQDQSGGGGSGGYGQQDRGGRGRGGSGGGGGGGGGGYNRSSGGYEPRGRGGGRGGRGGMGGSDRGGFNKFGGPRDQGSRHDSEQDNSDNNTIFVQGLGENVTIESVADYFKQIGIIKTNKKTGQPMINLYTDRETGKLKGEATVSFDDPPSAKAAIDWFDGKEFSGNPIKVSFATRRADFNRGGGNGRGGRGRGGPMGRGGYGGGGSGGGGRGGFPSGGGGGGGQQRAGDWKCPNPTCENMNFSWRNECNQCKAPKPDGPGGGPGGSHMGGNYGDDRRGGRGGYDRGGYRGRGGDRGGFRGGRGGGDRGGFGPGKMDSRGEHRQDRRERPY

The exact form of at least one protein or probe is not confirmed. For some assays here: At least one result comes from cells or an extract, where the contact may be indirect. For some assays here: At least one verdict rests on a figure or table, not on a statement of the authors.

Regarding “GGACUCGGACUUGGACUCUGGACUUUGGAC [4xDRACH-m6A]”, in data set [1], the binding result is listed as “binds”.
Turning to “GGACUCGGACUUGGACUCUGGACUUUGGAC [4xDRACH]”, the binding result in the data set with GFP-FUS is recorded as “binds”.
